Test results taken from publication PMC12887393.

Columns and labels:
[1] = biological target: T1, FLAG-tagged wild-type RAD51AP1 (RAD51-associated protein 1, isoform 2) (human) (UniProt Q96B01); assay: condition: only cells arrested in late G2/M phase by nocodazole; co-IP; anti-FLAG precipitates from lysates of cells released from a double thymidine block and arrested in late G2/M phase with nocodazole (80 ng/ml, 14 h); Western blot
T1 sequence: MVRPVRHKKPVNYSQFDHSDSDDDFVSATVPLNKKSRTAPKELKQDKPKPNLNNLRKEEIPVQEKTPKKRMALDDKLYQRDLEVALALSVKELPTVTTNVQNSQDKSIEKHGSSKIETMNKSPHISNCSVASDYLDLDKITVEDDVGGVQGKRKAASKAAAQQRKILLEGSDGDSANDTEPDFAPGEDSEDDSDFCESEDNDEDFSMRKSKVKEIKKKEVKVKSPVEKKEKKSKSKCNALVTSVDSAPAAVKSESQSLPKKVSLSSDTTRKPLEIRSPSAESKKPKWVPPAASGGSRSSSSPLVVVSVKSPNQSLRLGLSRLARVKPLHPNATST

[2] = biological target: T1, FLAG-tagged wild-type RAD51AP1 (RAD51-associated protein 1, isoform 2) (human); assay: co-IP; anti-FLAG precipitates from lysates of cells synchronized by a double thymidine block and released into early S phase (50 min); Western blot
[3] = biological target: T2, FLAG-tagged RAD51AP1-F3-S224A/S277A/S310A (residues 188-335) (human) (UniProt Q96B01); assay: as above
T2 sequence: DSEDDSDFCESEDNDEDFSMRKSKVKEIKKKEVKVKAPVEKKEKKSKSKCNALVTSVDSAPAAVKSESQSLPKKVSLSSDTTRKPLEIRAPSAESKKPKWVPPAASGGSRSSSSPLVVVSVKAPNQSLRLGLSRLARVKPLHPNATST

[4] = biological target: T3, FLAG-tagged RAD51AP1-F3-S224A/S310A (residues 188-335) (human) (UniProt Q96B01); assay: as above
T3 sequence: T2 sequence with A90S

[5] = biological target: T4, FLAG-tagged RAD51AP1-F3 fragment (residues 188-335) (human) (UniProt Q96B01); assay: as above
T4 sequence: T2 sequence with A37S, A90S, A123S

Cyclin A (human (endogenous in HeLa))
binding [1]: no binding
binding [2]: binds
binding [3]: binds
binding [4]: binds
binding [5]: binds

Positions count from the first letter of the chain named. No constants are given. Whether binding was seen depends on the method and setting. In cells and extracts the contact can be indirect. For some assays here: A result given as binding can be weak or reduced; the word gives no strength. Tags and fused reporters may be left off the sequences shown.
